# Experimental data reported in the supplement of paper PMC12819154, “High-throughput peptide-centric local stability assay extends protein–ligand identification to membrane proteins, tissues and bacteria” (Nature Structural & Molecular Biology, 2025).
# By UniProt entry, the sequences of proteins in these tests, tags left out. Where a name states a change or a piece, a line headed by the entry shows the natural chain unless it says otherwise.
# UniProt Q96QU8: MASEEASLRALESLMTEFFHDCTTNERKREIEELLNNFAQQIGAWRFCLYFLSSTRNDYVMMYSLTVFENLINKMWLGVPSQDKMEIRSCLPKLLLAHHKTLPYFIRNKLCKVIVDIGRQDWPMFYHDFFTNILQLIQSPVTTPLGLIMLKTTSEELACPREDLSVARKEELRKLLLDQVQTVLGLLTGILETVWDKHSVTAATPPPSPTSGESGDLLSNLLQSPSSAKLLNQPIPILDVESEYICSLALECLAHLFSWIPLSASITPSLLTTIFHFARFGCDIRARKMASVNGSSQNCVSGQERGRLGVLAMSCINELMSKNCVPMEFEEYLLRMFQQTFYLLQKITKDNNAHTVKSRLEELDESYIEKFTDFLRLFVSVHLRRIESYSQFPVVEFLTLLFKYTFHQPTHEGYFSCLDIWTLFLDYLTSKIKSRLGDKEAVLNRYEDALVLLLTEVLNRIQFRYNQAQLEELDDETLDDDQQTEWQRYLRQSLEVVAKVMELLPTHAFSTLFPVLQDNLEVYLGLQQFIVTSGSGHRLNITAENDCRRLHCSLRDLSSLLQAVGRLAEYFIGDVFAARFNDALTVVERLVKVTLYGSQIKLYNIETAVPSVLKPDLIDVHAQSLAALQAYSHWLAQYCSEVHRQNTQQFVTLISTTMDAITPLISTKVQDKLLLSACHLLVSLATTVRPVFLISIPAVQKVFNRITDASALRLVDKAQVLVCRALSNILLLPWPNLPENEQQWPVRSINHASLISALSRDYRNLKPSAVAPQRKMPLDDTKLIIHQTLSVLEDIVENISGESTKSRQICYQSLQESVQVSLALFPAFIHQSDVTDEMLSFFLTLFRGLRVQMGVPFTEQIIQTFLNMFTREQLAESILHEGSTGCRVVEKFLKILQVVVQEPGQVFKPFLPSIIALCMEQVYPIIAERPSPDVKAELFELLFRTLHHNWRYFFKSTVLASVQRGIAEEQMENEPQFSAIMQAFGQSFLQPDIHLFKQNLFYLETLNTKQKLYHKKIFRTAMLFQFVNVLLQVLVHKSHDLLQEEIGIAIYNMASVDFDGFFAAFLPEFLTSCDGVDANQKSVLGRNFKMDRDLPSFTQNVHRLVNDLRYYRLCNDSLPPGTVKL
# UniProt Q96T21: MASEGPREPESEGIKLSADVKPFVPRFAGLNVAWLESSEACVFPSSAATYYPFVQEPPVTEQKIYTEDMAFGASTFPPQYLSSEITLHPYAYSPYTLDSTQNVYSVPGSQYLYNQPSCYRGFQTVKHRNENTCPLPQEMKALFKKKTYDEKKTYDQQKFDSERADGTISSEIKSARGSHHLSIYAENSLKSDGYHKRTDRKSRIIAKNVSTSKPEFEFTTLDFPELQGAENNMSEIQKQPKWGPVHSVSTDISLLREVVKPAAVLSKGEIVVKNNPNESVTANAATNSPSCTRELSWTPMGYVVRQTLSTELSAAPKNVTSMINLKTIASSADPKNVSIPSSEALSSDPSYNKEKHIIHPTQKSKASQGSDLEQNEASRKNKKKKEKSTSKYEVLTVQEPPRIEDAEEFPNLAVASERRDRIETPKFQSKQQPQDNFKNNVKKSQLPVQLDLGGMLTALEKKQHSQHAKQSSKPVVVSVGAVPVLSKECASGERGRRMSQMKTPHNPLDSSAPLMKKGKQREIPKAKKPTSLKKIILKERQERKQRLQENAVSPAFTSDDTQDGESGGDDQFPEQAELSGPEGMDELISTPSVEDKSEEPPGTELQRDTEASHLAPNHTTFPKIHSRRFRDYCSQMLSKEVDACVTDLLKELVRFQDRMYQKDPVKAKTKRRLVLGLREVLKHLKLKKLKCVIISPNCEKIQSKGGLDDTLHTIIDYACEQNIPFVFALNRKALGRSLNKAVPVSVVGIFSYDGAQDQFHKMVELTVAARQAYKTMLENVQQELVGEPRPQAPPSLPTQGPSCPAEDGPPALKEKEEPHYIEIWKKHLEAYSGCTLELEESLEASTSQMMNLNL
# UniProt Q96K62: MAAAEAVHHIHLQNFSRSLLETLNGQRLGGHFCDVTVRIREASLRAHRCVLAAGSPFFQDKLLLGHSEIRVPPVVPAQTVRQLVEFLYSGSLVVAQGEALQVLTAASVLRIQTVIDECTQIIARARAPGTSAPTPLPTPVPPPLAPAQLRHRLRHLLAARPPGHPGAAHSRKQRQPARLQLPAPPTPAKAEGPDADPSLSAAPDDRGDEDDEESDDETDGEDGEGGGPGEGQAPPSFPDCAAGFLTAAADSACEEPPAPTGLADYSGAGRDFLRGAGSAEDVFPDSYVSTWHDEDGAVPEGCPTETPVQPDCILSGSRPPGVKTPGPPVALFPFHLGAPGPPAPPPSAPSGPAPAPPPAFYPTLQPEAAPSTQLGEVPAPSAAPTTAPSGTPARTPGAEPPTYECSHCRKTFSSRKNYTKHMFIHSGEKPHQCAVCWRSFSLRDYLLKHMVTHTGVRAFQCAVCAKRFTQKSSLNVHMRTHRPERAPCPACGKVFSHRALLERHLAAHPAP
# UniProt Q96T76: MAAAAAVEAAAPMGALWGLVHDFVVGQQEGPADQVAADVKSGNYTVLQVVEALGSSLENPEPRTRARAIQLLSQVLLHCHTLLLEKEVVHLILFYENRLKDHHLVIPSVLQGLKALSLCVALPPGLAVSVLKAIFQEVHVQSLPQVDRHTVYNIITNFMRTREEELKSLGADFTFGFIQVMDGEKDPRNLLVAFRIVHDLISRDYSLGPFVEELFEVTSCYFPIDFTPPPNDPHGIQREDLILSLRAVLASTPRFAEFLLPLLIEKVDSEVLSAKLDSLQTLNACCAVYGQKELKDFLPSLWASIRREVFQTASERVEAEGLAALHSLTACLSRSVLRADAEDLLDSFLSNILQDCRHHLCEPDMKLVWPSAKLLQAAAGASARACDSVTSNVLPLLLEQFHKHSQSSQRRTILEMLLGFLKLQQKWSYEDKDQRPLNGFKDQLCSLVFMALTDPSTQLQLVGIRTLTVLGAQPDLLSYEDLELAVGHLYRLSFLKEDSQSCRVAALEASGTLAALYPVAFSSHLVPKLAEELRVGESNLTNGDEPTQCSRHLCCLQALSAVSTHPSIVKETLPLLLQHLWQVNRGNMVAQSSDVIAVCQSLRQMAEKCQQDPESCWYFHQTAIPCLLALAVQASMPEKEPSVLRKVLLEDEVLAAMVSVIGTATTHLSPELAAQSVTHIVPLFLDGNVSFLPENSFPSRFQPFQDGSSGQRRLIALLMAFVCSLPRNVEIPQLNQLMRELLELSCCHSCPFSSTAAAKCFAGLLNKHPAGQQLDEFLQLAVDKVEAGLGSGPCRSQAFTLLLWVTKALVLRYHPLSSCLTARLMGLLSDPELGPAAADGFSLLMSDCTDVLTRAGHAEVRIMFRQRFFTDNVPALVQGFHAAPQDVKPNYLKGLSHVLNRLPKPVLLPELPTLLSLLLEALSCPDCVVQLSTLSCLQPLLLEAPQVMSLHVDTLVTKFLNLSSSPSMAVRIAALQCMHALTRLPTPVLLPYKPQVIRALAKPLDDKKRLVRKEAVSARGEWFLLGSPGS
# UniProt Q96SI1: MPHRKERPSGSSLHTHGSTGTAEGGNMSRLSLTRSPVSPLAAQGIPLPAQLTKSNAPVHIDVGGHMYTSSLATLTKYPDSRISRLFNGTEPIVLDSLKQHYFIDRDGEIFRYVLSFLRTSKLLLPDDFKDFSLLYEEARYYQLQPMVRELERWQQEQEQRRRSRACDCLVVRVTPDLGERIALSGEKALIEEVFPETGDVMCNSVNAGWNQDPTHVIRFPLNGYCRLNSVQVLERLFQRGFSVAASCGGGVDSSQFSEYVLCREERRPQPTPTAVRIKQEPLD
# UniProt Q96LW4: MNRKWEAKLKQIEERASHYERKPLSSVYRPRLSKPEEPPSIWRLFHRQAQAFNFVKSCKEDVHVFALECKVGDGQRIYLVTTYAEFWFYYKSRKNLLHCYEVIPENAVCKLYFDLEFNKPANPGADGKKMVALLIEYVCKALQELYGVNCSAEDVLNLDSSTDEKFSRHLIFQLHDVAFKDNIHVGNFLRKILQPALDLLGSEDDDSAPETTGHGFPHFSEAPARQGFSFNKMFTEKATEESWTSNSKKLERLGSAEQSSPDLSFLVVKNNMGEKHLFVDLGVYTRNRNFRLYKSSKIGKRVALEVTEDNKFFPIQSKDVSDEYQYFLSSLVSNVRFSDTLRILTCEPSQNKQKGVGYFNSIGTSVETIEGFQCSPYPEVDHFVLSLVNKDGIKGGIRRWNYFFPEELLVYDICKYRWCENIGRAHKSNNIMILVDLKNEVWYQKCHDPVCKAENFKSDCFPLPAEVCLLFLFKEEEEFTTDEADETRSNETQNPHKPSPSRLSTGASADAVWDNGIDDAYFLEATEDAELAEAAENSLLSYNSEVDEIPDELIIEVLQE
# UniProt Q96K58: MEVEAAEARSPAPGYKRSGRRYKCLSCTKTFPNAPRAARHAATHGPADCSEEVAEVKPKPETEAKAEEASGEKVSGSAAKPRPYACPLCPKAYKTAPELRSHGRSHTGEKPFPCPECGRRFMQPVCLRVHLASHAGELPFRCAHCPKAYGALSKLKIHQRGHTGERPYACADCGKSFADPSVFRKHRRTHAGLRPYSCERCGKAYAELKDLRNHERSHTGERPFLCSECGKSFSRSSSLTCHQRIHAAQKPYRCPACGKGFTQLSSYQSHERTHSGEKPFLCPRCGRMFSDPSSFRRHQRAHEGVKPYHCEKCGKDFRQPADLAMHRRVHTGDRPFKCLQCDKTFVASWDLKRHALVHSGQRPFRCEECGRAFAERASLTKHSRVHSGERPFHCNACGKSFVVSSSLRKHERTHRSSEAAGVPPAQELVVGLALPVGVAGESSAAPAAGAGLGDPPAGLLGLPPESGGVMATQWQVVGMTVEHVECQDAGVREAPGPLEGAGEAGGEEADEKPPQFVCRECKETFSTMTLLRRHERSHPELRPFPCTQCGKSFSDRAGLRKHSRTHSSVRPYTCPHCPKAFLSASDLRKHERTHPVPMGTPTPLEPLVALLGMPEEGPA
# UniProt Q96JB3: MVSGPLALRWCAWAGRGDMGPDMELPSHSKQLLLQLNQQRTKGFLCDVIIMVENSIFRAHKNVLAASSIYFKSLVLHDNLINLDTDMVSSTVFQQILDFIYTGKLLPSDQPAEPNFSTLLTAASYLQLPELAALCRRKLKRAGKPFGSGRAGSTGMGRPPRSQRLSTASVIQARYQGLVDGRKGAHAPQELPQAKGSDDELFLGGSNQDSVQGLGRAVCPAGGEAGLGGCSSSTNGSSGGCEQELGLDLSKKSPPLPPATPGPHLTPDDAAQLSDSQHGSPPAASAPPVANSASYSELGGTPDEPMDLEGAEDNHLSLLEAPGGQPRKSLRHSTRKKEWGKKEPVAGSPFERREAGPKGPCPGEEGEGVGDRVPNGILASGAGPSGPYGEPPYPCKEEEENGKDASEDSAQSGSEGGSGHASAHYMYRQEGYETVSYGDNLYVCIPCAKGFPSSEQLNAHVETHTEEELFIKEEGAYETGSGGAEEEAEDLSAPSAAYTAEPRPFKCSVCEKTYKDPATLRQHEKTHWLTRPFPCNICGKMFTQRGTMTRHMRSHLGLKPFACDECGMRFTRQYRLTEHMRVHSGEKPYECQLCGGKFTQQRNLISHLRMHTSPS
# UniProt Q96HP4: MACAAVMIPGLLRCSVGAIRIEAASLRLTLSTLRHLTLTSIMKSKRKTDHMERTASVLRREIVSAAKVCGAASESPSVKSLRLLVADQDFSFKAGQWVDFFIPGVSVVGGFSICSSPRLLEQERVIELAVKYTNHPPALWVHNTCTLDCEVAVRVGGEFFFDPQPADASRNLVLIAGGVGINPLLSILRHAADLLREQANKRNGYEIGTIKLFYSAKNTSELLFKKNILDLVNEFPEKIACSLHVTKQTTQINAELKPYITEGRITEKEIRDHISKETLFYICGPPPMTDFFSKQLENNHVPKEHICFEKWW
# The other results are listed elsewhere or left out. Most values lie at the level of the controls, where differences are scatter.
# Compound: CN[C@@H]1C[C@H]2O[C@@](C)([C@@H]1OC)n1c3ccccc3c3c4c(c5c6ccccc6n2c5c31)C(=O)NC4 [staurosporine]
# Assay: log2 fold change of tryptic peptide abundance, ligand vs vehicle (limited proteolysis) (log2 ratio); higher = more trypsin-susceptible (destabilized)
# Settings: ligand concentration: 20 uM; sample: K562 cleared lysate; digestion: 4 min, 22 C (HT-PELSA RT4min, Orbitrap Astral)
row,Target,log2 fold change
1,"XPO6 (peptide sequence: TTSEELACPR, peptide start residue: 152) (UniProt Q96QU8)",-0.205
2,"SECISBP2 (peptide sequence: HIIHPTQK, peptide start residue: 356) (UniProt Q96T21)",0.289
3,"UniProt Q96K62 (peptide sequence: HLLAARPPGHPGAAHSR, peptide start residue: 155)",0.305
4,"MMS19 (peptide sequence: ETLPLLLQHLWQVNR, peptide start residue: 571) (UniProt Q96T76)",-0.125
5,"KCTD15 (peptide sequence: VTPDLGER, peptide start residue: 173) (UniProt Q96SI1)",0.241
6,"PRIMPOL (peptide sequence: LKQIEER, peptide start residue: 9) (UniProt Q96LW4)",-0.391
7,"ZNF668 (peptide sequence: VHLASHAGELPFR, peptide start residue: 129) (UniProt Q96K58)",-0.157
8,"HIC2 (peptide sequence: EWGKKEPVAGSPFER, peptide start residue: 338) (UniProt Q96JB3)",-0.156
9,"OXNAD1 (peptide sequence: KTDHMER, peptide start residue: 47) (UniProt Q96HP4)",0.274
